# ± gives the standard deviation of the averaged measurements. The entries are a selection whose mix differs from that of the whole data set.
# How the values were obtained:
# Assay in all cases: NP40-soluble protein abundance relative to vehicle (solubility fold change) (ratio); higher = more soluble protein in presence of AMP-PNP
# [1] = target: T1, J3KPD3 and related entries (UniProt Q9Y580)
# T1 sequence (whole entry): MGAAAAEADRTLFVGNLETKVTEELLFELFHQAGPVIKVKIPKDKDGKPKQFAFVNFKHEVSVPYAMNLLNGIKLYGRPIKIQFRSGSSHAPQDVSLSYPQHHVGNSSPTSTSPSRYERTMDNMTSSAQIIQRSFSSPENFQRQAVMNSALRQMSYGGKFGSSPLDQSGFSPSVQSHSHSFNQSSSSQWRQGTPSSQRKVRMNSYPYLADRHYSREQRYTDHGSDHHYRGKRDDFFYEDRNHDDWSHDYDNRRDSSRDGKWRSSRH
# In short: (§1)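 Each value is a fold change relative to the detergent-processed vehicle, calculated per replicate from vsn-normalised intensities. Jurkat crude lysate received eight concentrations (0.1 to 10 mM) for 10 min at room temperature and 3 min at 37 °C, then was solubilised in 0.8% NP40 with benzonase (60 min, 4 °C). The ultracentrifuged supernatant was TMT-labelled and run by LC-MS/MS in three independent experiments.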
# [2] = target: T2, J3KPT4 and related entries (UniProt Q9H4I3)
# T2 sequence (whole entry): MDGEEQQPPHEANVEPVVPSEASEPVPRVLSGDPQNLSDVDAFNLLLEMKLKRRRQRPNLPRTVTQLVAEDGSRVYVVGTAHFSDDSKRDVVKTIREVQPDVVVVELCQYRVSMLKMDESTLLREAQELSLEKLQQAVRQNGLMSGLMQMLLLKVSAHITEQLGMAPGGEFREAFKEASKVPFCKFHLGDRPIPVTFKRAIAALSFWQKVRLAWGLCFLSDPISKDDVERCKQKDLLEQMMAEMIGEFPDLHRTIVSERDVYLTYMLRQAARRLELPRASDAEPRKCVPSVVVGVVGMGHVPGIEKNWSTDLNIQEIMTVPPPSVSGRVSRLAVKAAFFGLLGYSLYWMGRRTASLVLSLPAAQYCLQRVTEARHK
# In short: as §1
# [3] = target: T3, J3KQ09 and related entries (UniProt Q9UNA4)
# T3 sequence (whole entry): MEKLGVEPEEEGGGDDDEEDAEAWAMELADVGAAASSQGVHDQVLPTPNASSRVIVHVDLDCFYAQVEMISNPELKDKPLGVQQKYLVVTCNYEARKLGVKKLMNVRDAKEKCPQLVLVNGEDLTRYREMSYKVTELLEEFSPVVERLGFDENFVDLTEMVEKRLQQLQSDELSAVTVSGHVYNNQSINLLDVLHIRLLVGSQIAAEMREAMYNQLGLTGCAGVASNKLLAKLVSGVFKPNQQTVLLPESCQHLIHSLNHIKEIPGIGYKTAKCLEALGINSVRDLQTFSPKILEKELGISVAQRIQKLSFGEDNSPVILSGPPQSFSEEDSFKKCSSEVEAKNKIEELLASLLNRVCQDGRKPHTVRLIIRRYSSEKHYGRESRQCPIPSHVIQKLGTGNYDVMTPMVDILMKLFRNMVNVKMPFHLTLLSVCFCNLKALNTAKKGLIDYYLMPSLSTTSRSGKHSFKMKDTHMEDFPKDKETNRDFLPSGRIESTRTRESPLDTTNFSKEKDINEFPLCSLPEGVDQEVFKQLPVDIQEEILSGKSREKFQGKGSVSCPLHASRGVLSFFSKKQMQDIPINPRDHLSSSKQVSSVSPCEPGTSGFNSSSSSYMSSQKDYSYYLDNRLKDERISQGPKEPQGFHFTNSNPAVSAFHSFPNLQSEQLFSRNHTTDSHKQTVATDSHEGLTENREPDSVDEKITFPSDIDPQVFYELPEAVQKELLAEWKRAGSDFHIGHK
# In short: as §1
# [4] = target: T4, J3KQS5 and related entries (UniProt Q96JA3)
# T4 sequence (whole entry): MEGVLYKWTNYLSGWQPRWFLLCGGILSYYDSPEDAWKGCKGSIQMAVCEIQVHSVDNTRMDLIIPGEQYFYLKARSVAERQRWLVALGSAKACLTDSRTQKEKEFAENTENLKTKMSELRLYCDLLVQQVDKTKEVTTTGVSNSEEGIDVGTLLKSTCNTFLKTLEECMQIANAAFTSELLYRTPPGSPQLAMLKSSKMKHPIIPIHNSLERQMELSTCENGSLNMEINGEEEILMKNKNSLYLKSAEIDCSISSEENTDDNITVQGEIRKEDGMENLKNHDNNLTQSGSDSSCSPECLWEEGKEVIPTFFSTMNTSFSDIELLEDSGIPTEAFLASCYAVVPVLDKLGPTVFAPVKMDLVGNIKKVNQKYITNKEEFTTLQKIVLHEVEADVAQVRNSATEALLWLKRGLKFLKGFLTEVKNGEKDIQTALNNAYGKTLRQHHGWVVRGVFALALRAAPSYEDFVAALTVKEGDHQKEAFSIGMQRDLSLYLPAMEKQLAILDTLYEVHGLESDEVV
# In short: as §1
# [5] = target: T5, J3KSZ8 and related entries (UniProt Q68DK7)
# T5 sequence (whole entry): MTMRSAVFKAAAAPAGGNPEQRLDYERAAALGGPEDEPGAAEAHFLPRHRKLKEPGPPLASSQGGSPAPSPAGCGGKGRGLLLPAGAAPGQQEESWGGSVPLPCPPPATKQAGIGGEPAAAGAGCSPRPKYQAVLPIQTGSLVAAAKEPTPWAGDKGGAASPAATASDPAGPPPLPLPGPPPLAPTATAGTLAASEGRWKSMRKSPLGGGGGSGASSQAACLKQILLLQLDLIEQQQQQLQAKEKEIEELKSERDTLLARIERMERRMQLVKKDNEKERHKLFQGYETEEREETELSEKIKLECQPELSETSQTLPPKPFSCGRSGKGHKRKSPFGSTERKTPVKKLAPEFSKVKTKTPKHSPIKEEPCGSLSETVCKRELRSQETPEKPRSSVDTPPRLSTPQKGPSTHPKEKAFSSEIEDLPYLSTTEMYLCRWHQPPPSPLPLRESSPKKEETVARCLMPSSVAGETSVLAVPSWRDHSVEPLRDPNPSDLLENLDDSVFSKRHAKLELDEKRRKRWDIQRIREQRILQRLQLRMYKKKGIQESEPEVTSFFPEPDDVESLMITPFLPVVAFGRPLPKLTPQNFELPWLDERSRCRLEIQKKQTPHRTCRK
# In short: as §1
smiles,measurement,setting,value
Nc1ncnc2c1ncn2[C@@H]1O[C@H](COP(=O)(O)OP(=O)(O)NP(=O)(O)O)[C@@H](O)[C@H]1O [adenylyl imidodiphosphate],NP40-soluble protein abundance,[1]; concentration: 8mM,0.974 ± 0.051
same,NP40-soluble protein abundance,[1]; concentration: 10mM,1.01 ± 0.063
same,NP40-soluble protein abundance,[2]; concentration: 1mM,0.959 ± 0.029
same,NP40-soluble protein abundance,[2]; concentration: 2mM,0.914 ± 0.033
same,NP40-soluble protein abundance,[2]; concentration: 4mM,0.976 ± 0.015
same,NP40-soluble protein abundance,[2]; concentration: 6mM,0.986 ± 0.053
same,NP40-soluble protein abundance,[2]; concentration: 8mM,0.981 ± 0.011
same,NP40-soluble protein abundance,[2]; concentration: 10mM,0.976 ± 0.021
same,NP40-soluble protein abundance,[3]; concentration: 1mM,1.03 ± 0.031
same,NP40-soluble protein abundance,[3]; concentration: 2mM,0.987 ± 0.029
same,NP40-soluble protein abundance,[3]; concentration: 4mM,1.01 ± 0.011
same,NP40-soluble protein abundance,[3]; concentration: 6mM,0.99 ± 0.029
same,NP40-soluble protein abundance,[3]; concentration: 8mM,1 ± 0.015
same,NP40-soluble protein abundance,[3]; concentration: 10mM,0.9853 ± 0.0059
same,NP40-soluble protein abundance,[4]; concentration: 1mM,0.962 ± 0.02
same,NP40-soluble protein abundance,[4]; concentration: 2mM,0.996 ± 0.033
same,NP40-soluble protein abundance,[4]; concentration: 4mM,0.952 ± 0.03
same,NP40-soluble protein abundance,[4]; concentration: 6mM,0.941 ± 0.028
same,NP40-soluble protein abundance,[4]; concentration: 8mM,0.952 ± 0.018
same,NP40-soluble protein abundance,[4]; concentration: 10mM,0.936 ± 0.012
same,NP40-soluble protein abundance,[5]; concentration: 1mM,1.03 ± 0.027
same,NP40-soluble protein abundance,[5]; concentration: 2mM,1.02 ± 0.069
same,NP40-soluble protein abundance,[5]; concentration: 4mM,1.02 ± 0.031
same,NP40-soluble protein abundance,[5]; concentration: 6mM,1.03 ± 0.027
same,NP40-soluble protein abundance,[5]; concentration: 8mM,1.03 ± 0.035
same,NP40-soluble protein abundance,[5]; concentration: 10mM,1.07 ± 0.04

# Reprinted from above for reference:
smiles,measurement,setting,value
Nc1ncnc2c1ncn2[C@@H]1O[C@H](COP(=O)(O)OP(=O)(O)NP(=O)(O)O)[C@@H](O)[C@H]1O [adenylyl imidodiphosphate],NP40-soluble protein abundance,[3]; concentration: 1mM,1.03 ± 0.031
same,NP40-soluble protein abundance,[3]; concentration: 2mM,0.987 ± 0.029
